Assay results: the supplement of paper PMC10849652
Some of the results follow.

The chains behind the UniProt entries cited, without tags or fusion partners. Where a name states a change or a piece, a line headed by the entry shows the natural chain unless it says otherwise.
UniProt Q9UIV1, whole entry, looked up: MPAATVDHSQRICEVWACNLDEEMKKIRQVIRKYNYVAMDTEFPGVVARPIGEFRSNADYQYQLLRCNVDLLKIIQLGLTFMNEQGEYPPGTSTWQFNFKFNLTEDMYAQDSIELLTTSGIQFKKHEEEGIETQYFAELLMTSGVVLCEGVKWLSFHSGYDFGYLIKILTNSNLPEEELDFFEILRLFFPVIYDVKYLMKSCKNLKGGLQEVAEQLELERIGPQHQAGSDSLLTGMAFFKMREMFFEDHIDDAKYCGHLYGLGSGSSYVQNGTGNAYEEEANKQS
UniProt Q9ULV3: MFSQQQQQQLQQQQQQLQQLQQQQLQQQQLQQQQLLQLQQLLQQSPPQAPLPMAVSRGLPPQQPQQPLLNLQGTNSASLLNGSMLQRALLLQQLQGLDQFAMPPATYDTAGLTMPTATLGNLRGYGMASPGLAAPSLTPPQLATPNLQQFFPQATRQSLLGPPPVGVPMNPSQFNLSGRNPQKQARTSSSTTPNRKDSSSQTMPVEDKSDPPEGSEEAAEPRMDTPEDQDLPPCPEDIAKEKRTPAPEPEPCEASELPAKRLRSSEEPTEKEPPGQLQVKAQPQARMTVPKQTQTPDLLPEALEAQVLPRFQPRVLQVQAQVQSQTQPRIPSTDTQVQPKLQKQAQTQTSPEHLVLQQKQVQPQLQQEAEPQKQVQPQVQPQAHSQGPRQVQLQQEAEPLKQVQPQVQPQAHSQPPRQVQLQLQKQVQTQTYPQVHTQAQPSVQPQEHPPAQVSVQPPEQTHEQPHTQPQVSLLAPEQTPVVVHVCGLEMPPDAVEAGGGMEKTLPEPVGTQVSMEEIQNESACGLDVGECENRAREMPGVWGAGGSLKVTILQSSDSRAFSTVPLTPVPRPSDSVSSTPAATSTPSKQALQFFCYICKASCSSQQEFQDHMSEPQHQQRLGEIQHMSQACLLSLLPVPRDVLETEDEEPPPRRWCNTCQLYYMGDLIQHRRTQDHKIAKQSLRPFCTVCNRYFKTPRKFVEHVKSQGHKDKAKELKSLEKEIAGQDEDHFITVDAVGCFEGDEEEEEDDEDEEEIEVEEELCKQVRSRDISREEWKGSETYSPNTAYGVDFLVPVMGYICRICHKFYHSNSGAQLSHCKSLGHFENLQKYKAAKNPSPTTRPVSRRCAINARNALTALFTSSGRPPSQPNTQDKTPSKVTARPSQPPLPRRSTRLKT
UniProt Q14008: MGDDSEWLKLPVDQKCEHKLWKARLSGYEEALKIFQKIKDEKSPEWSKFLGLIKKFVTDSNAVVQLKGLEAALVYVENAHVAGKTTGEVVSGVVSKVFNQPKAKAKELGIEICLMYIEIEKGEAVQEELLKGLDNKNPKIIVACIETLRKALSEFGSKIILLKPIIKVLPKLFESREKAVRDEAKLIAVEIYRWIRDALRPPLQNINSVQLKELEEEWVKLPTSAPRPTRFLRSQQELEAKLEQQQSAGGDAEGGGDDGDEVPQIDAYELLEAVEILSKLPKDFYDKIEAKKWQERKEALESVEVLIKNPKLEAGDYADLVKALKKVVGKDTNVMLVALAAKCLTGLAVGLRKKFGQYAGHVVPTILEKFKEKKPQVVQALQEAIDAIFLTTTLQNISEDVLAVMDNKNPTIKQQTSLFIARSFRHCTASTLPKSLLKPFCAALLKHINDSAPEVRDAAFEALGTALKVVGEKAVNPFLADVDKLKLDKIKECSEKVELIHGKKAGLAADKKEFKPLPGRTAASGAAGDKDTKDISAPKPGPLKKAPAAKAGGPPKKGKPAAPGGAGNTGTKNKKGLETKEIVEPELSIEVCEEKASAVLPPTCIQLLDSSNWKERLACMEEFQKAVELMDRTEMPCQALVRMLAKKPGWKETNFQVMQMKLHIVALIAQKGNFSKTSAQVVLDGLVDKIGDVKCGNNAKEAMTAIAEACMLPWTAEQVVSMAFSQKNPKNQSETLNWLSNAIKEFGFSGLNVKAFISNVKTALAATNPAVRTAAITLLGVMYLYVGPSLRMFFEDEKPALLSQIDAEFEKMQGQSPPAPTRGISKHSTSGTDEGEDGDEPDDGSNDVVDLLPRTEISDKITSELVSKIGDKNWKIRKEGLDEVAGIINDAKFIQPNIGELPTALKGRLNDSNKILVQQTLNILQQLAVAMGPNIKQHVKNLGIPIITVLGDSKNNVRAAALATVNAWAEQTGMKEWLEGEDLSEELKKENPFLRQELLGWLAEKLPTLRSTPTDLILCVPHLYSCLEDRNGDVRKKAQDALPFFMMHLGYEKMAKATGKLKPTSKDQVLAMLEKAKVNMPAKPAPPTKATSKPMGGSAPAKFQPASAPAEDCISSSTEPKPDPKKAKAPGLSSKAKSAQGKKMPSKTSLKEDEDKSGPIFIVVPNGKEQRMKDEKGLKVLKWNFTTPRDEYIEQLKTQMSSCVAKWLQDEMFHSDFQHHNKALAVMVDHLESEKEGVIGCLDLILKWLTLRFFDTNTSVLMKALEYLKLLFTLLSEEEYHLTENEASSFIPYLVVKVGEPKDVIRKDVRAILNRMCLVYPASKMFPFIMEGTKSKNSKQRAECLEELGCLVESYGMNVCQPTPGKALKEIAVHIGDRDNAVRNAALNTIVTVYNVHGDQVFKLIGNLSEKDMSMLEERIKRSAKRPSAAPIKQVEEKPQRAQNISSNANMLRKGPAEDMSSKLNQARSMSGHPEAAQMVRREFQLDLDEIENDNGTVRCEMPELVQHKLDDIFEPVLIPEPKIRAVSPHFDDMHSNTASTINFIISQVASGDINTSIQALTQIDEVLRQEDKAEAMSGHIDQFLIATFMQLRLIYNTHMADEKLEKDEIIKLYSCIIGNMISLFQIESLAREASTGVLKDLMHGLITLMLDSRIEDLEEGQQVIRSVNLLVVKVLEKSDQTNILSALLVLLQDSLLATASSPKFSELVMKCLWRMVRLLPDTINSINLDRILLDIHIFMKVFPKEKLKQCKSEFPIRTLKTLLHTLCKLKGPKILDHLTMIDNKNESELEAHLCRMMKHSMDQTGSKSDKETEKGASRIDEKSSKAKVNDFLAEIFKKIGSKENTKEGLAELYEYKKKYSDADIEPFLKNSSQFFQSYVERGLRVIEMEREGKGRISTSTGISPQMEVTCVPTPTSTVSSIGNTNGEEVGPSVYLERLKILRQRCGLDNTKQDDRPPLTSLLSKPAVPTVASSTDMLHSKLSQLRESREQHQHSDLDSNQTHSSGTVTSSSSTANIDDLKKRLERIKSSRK
UniProt P09497: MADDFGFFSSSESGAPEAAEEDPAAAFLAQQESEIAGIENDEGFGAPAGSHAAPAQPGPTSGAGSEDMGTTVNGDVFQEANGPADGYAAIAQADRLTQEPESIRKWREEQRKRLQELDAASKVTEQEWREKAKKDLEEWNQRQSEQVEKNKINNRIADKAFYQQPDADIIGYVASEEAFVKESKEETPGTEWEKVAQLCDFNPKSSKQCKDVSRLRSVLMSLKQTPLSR
UniProt Q9NZN8, whole entry, looked up: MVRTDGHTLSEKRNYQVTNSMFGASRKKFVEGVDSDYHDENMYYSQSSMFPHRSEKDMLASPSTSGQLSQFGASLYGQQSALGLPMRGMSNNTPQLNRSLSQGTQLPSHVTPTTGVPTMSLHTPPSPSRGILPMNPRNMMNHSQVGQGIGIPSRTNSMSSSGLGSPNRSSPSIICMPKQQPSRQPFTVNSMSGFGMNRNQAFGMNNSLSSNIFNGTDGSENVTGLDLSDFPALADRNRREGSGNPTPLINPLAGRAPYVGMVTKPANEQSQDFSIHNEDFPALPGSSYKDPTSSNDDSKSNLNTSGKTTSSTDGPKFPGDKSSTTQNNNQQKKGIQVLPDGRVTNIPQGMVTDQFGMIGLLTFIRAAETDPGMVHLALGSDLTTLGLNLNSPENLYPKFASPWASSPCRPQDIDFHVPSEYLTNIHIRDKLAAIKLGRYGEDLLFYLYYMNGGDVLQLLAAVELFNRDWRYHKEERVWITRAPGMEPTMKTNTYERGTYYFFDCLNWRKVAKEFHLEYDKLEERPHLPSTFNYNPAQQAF
UniProt Q96KP4: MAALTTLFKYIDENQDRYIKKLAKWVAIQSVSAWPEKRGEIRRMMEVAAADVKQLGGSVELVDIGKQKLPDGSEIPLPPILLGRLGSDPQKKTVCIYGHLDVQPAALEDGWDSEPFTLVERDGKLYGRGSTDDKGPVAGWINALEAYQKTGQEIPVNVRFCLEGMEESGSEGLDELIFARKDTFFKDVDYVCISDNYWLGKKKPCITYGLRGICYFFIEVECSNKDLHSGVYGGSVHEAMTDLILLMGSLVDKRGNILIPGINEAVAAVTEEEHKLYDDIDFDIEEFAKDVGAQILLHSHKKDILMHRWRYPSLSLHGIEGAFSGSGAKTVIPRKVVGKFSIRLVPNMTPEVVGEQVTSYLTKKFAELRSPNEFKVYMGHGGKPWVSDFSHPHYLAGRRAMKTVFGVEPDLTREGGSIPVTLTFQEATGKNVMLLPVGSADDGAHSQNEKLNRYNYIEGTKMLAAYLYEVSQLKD
UniProt Q99439: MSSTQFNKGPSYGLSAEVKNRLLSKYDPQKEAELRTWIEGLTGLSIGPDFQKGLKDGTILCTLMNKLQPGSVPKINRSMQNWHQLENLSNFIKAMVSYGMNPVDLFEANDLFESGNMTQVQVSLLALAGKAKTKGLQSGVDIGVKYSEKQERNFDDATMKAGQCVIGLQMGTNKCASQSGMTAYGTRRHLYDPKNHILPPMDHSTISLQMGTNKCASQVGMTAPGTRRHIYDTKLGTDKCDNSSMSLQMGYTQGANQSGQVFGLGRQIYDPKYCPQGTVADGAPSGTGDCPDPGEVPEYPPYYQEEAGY
UniProt Q9H6Q4: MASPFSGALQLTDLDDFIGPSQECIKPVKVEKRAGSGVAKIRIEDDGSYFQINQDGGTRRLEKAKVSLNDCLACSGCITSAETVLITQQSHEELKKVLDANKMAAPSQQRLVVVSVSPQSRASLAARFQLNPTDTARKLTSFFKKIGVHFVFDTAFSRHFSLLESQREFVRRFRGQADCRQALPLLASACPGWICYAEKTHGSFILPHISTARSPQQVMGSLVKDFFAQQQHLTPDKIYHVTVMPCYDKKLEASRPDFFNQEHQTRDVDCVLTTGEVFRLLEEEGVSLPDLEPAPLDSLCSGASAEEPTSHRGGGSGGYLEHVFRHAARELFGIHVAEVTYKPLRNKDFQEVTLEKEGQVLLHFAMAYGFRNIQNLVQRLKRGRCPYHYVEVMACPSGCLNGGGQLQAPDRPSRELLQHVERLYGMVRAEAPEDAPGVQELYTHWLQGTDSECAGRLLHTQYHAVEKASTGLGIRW
UniProt Q9C0A0: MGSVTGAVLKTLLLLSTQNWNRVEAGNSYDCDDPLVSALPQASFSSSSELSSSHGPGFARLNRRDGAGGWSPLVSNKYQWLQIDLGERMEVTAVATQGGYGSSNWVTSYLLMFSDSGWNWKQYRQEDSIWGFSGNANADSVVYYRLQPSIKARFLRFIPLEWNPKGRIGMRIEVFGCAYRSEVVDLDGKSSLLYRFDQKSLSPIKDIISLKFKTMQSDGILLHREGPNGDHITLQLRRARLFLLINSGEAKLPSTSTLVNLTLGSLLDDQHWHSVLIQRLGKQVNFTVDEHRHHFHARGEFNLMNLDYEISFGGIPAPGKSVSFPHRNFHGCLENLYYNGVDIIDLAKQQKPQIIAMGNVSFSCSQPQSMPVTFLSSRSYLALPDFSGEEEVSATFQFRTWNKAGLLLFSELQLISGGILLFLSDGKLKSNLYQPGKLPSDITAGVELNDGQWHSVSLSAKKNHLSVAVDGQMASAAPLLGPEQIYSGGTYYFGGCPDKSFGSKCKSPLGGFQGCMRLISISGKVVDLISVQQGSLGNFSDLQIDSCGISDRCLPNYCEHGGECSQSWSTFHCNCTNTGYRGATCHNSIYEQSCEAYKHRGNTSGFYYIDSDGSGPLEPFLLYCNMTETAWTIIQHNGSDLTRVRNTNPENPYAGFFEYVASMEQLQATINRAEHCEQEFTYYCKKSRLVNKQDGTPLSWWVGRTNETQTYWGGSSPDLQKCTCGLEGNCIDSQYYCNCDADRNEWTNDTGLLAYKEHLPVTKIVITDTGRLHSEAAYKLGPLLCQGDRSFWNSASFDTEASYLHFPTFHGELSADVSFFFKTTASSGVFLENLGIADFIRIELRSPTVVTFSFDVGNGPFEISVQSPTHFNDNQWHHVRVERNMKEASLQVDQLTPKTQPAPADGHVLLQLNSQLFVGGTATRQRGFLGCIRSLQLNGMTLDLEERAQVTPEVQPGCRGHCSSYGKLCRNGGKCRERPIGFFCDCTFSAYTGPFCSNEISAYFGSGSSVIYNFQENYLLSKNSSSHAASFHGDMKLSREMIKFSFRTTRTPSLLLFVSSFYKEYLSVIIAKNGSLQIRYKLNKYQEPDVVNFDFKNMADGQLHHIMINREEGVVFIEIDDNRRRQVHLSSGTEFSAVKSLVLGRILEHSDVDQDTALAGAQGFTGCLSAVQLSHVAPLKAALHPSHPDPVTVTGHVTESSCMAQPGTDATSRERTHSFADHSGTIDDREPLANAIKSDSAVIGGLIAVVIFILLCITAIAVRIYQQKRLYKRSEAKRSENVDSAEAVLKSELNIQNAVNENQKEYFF

compound: Cc1nc(Nc2n[nH]c3c2CN(C(=O)N[C@H](CN(C)C)c2ccccc2)C3(C)C)c2sccc2n1; assay: log2 fold change, soluble protein after heating vs DMSO (PISA); higher = thermal stabilisation; K562 cells, 10 uM, 30 min; active = over 0.2 and 3.5 SD of the protein, either way, in both replicates (recomputed)
Summary of the method: (§1)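 K562 cells at 2×10^6 cells/mL were exposed to 10 μM compound for 30 min, then aliquots were heated for 3 min across 48°C-58°C, pooled, and extracted in PBS containing 0.5% NP-40 at 4°C. The supernatant after 21,000xg for 90 min was taken as soluble protein and measured by TMTpro 16plex LC-MS/MS with channel sums equalised. Thermal stability is reported relative to control samples, with values from duplicates. Fold changes are given on a log2 scale.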

log2 fold change, inactive:
CNTN4 (UniProt Q8IWV2) 0.01
CLPTM1L (UniProt Q96KA5) 0.009
COA7 (UniProt Q96BR5) -0.001
CLIP1 isoform 1 (UniProt P30622) -0.004
CNNM3 (UniProt Q8NE01) -0.008
CNOT7 (UniProt Q9UIV1) -0.057
CIZ1 (UniProt Q9ULV3) -0.181
CLGN (UniProt O14967) 0.054
CHORDC1 (UniProt Q9UHD1) 0.027
CMC2 (UniProt Q9NRP2) 0.045
CLN8 (UniProt Q9UBY8) -0.11
CHP1 (UniProt Q99653) 0.019
CKAP5 (UniProt Q14008) -0.116
CLTB (UniProt P09497) 0.024
CLIP4 (UniProt Q8N3C7) 0.072
CLNS1A (UniProt P54105) -0.002
CLCC1 (UniProt Q96S66) 0.014
COL1A2 (UniProt P08123) 0.04
CLPP (UniProt Q16740) 0.005
CLUH, A0A494C0R8 0.015
CLIC2 (UniProt O15247) -0.063
CNOT2 (UniProt Q9NZN8) -0.063
CMBL (UniProt Q96DG6) 0.066
CLIC4 (UniProt Q9Y696) -0.053
CINP isoform 3 (UniProt Q9BW66) -0.129
CLIC1 (UniProt O00299) 0.003
CNDP2 (UniProt Q96KP4) -0.015
CNN2 (UniProt Q99439) -0.074
CHPF2 (UniProt Q9P2E5) -0.188
CIAO3 (UniProt Q9H6Q4) -0.024
CLCN7 (UniProt P51798) -0.012
CNTNAP4 (UniProt Q9C0A0) 0.164

compound: Cc1nc(Nc2ncc(C(=O)Nc3c(C)cccc3Cl)s2)cc(N2CCN(CCO)CC2)n1 [dasatinib]; assay: as above
Summary of the method: as §1

log2 fold change, inactive:
CNTN4 (UniProt Q8IWV2) 0.003
CLPTM1L (UniProt Q96KA5) -0.045
COA7 (UniProt Q96BR5) 0.031
CLIP1 isoform 1 (UniProt P30622) 0.018
CNNM3 (UniProt Q8NE01) -0.027
CNOT7 (UniProt Q9UIV1) -0.255
CIZ1 (UniProt Q9ULV3) -0.016
CLGN (UniProt O14967) 0.054
CHORDC1 (UniProt Q9UHD1) -0.017
CMC2 (UniProt Q9NRP2) 0.092
CLN8 (UniProt Q9UBY8) 0.032
CHP1 (UniProt Q99653) 0.042
CKAP5 (UniProt Q14008) -0.147
CLTB (UniProt P09497) 0.081
CLIP4 (UniProt Q8N3C7) 0.101
CLNS1A (UniProt P54105) -0.058
CLCC1 (UniProt Q96S66) 0.025
COL1A2 (UniProt P08123) -0.013
CLPP (UniProt Q16740) 0.063
CLUH, A0A494C0R8 -0.051
CLIC2 (UniProt O15247) -0.107
CNOT2 (UniProt Q9NZN8) -0.035
CMBL (UniProt Q96DG6) 0.13
CLIC4 (UniProt Q9Y696) -0.036
CINP isoform 3 (UniProt Q9BW66) 0.061
CLIC1 (UniProt O00299) -0.011
CNDP2 (UniProt Q96KP4) -0.031
CNN2 (UniProt Q99439) -0.14
CHPF2 (UniProt Q9P2E5) 0.055
CIAO3 (UniProt Q9H6Q4) -0.126
CLCN7 (UniProt P51798) -0.091
CNTNAP4 (UniProt Q9C0A0) 0.277
